This passage reports stoichiometry N results from article PMC2199960.

The test has as its target collagen XII, large variant (large subunit, 320 kD) (chick) (UniProt P13944). In words: electron microscopy.

In the case of “collagen XII, large variant (large subunit, 320 kD), P13944 24-3124”, the stoichiometry N (usually a count of units in the complex or per binding partner) came to 3.
